Measurements published in PubChem BioAssay AID1347076 (National Center for Advancing Translational Sciences (NCATS), 2019).
The whole screen tested about 400,000 compounds, of which about 13,000 (3.2%) were called active. Inconclusive means that the source gave no clear call. Such entries were picked first, then a sample of the others. Calls come from the whole dose curve; as a rule, active = well fitted cell-killing curve with a large enough effect; inconclusive = small, poorly fitted or top-dose-only effect, or effect the other way; inactive = flat fitted curve, though single readings scatter. A potency beside an inconclusive call is a rough fit, not a confirmed value.

assay: qHTS assay for MDR1-selective chemotherapeutics: Primary screen using the drug-selected MDR subline cells KB-V1; conditions: KB-V1 MDR cells viability, CellTiter-Glo, 72 h; activity change, negative = cytotoxicity: at 46.1 µM (top of the series); note: nearly all actives have a fitted effect of over 60% in size
Summary of the method: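 Drug-selected KB-V1 cells, grown in DMEM lacking phenol red with 10% FBS, receive compound titrations; after three days at 37 degrees C, surviving cell ATP is quantified by CellTiter-Glo luminescence and responses normalized and curve-fitted.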
% is set by controls: 0 for no effect and ±100 for the full control effect; potency is the fitted concentration of half-maximal effect.

Row | Compound | activity change, negative = cytotoxicity | Potency
1 | Cc1ccc(-n2c(N)c(C(=O)Nc3ccccc3F)sc2=S)cc1C | inactive: -5.85% | –
2 | Cc1ccc(-c2nc(=Nc3ccccc3)sn2-c2ccccc2)cc1 | – | inconclusive: 20.6 µM [cytotoxic, single point]
3 | CC1(C)CC(=O)C2=C(C1)OC(N)=C(C#N)C2C1CC=CCC1 (centres undefined) | – | active: 16.4 µM
4 | CC(C)CCNC(=O)C(=O)Nc1ccc2c(c1)N(S(=O)(=O)c1cccs1)CCC2 | – | inconclusive: 2.91 µM [cytotoxic, partial curve, poor fit]
5 | COc1cccc(/C=N/Nc2ncnc3c2[nH]c2ccc(C)cc23)c1OC | inactive: -11.6% | –
6 | COCC1CCN(C(=O)c2cc(COc3ccc4ncccc4c3)on2)CC1 | – | active: 7.31 µM
7 | Cc1ccc(Cn2ncc3c(N4CCN(c5ccc(C)cc5)CC4)ncnc32)cc1 | – | inconclusive: 4.11 µM [cytotoxic, full curve, poor fit]
8 | CCOC(=O)c1cc(-c2ccc(C)cc2)n(CCC(=O)NCCN(C)C)c1C | – | inconclusive: 9.2 µM [cytotoxic, partial curve]
9 | CN(Cc1ccccc1)C(=O)c1[nH]cnc1C(=O)Nc1cccc(Cl)c1 | inactive: -4.71% | –
10 | CSCCC(NS(=O)(=O)c1ccc(Cl)cc1)C(=O)OCc1c(Cl)cccc1Cl (centres undefined) | – | active: 7.31 µM
11 | CC(C)c1ccc(S(=O)(=O)/N=C2/C=C(Sc3ncn[nH]3)C(=O)c3ccccc32)cc1 | – | inconclusive: 29.1 µM [cytotoxic, single point]
12 | COc1ccccc1NC(=O)c1nnn(CC(=O)Nc2ccccc2)c1N | – | inconclusive: 29.1 µM [rising, partial curve, poor fit]
13 | CCOC(=O)C1CCCN(C(=O)C2c3ccccc3Oc3ccccc32)C1 (centres undefined) | – | active: 11.6 µM
14 | COc1c(C(O)CC(C)C)ccc2c1C(=O)OCc1cc(C)cc(O)c1O2 (centres undefined) | – | inconclusive: 2.31 µM [rising, full curve]
15 | CCOc1ccccc1C(=O)Nc1ccc2c(c1)N(C)C(=O)c1ccccc1S2 | – | inconclusive: 4.61 µM [cytotoxic, full curve, poor fit]
16 | Cc1cc(/C=N/n2cnnc2)c(C)n1-c1ccc(OCc2ccc(Cl)cc2)cc1 | – | active: 3.66 µM
17 | Cc1nn(-c2ccc(N3CCOCC3)nn2)c(C)c1CCC(=O)NCc1ccc(OC(C)C)cc1 | inactive: -1.19% | –
18 | Cc1ccc2oc(C(=O)N3CCN(CC(=O)NC(C)C)CC3)c(C)c2c1 | – | inconclusive: 18.4 µM [rising, single point]
19 | CCC(=O)N1CCN(c2ccccc2NC(=O)c2cccs2)CC1 | – | inconclusive: 16.4 µM [cytotoxic, partial curve, poor fit]

Some of the entries so far, as labelled records:
CC1(C)CC(=O)C2=C(C1)OC(N)=C(C#N)C2C1CC=CCC1 (centres undefined)
  Potency: active: 16.4 µM
CC(C)CCNC(=O)C(=O)Nc1ccc2c(c1)N(S(=O)(=O)c1cccs1)CCC2
  Potency: inconclusive: 2.91 µM [cytotoxic, partial curve, poor fit]
